Publication PMC11193767
No constants are given. Whether binding was seen depends on the method and setting. In cells and extracts the contact can be indirect. Here binding means that the protein was enriched with, or labelled near, the bait; the list need not be complete.

Chains of the proteins cited; added tags and fusions are not shown.
UniProt Q8IWT6: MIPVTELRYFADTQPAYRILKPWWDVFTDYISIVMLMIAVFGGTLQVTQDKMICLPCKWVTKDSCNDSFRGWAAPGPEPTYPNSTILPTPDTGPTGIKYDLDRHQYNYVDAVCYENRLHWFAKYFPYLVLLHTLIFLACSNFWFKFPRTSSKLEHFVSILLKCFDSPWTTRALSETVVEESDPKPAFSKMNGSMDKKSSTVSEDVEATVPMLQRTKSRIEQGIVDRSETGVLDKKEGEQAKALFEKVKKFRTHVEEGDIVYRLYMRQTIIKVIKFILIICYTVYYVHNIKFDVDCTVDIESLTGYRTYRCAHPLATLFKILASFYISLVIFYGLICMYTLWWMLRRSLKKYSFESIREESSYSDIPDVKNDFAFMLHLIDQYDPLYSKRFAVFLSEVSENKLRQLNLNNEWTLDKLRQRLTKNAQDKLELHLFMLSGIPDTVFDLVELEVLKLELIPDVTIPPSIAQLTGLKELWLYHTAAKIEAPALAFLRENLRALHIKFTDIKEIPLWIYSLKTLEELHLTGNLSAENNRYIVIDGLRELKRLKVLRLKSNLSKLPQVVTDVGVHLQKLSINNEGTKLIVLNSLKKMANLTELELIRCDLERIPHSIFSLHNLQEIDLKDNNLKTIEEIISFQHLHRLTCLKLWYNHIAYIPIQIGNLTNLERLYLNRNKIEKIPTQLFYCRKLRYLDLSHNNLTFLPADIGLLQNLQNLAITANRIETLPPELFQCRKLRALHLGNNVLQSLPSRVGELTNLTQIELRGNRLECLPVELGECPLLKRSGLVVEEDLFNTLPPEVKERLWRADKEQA

molecular target: LRRC8A-BirA*-HA fusion protein (human) (UniProt Q8IWT6); experiment: proximity labelling; BioID: HEK293 cells stably expressing LRRC8A-BirA*-HA (two clones), 50 uM biotin 24 h, RIPA lysis, streptavidin bead pull-down of biotinylated proteins, TMT labelling and LC-MS/MS; hits: FDR <= 0.05 and fold change >= 2 against the no-biotin control

binding	Binder
binds	Interferon-induced protein with tetratricopeptide repeats 5 (protein, UniProt Q13325-1 1-482) MSEIRKDTLKAILLELECHFTWNLLKEDIDLFEVEDTIGQQLEFLTTKSRLALYNLLAYVKHLKGQNKDALECLEQAEEIIQQEHSDKEEVRSLVTWGNYAWVYYHMDQLEEAQKYTGKIGNVCKKLSSPSNYKLECPETDCEKGWALLKFGGKYYQKAKAAFEKALEVEPDNPEFNIGYAITVYRLDDSDREGSVKSFSLGPLRKAVTLNPDNSYIKVFLALKLQDVHAEAEGEKYIEEILDQISSQPYVLRYAAKFYRRKNSWNKALELLKKALEVTPTSSFLHHQMGLCYRAQMIQIKKATHNRPKGKDKLKVDELISSAIFHFKAAMERDSMFAFAYTDLANMYAEGGQYSNAEDIFRKALRLENITDDHKHQIHYHYGRFQEFHRKSENTAIHHYLEALKVKDRSPLRTKLTSALKKLSTKRLCHNALDVQSLSALGFVYKLEGEKRQAAEYYEKAQKIDPENAEFLTALCELRLSI
binds	GTPase-activating protein and VPS9 domain-containing protein 1 (protein, UniProt Q14C86-1 1-1478) MVKLDIHTLAHHLKQERLYVNSEKQLIQRLNADVLKTAEKLYRTAWIAKQQRINLDRLIITSAEASPAECCQHAKILEDTQFVDGYKQLGFQETAYGEFLSRLRENPRLIASSLVAGEKLNQENTQSVIYTVFTSLYGNCIMQEDESYLLQVLRYLIEFELKESDNPRRLLRRGTCAFSILFKLFSEGLFSAKLFLTATLHEPIMQLLVEDEDHLETDPNKLIERFSPSQQEKLFGEKGSDRFRQKVQEMVESNEAKLVALVNKFIGYLKQNTYCFPHSLRWIVSQMYKTLSCVDRLEVGEVRAMCTDLLLACFICPAVVNPEQYGIISDAPINEVARFNLMQVGRLLQQLAMTGSEEGDPRTKSSLGKFDKSCVAAFLDVVIGGRAVETPPLSSVNLLEGLSRTVVYITYSQLITLVNFMKSVMSGDQLREDRMALDNLLANLPPAKPGKSSSLEMTPYNTPQLSPATTPANKKNRLPIATRSRSRTNMLMDLHMDHEGSSQETIQEVQPEEVLVISLGTGPQLTPGMMSENEVLNMQLSDGGQGDVPVDENKLHGKPDKTLRFSLCSDNLEGISEGPSNRSNSVSSLDLEGESVSELGAGPSGSNGVEALQLLEHEQATTQDNLDDKLRKFEIRDMMGLTDDRDISETVSETWSTDVLGSDFDPNIDEDRLQEIAGAAAENMLGSLLCLPGSGSVLLDPCTGSTISETTSEAWSVEVLPSDSEAPDLKQEERLQELESCSGLGSTSDDTDVREVSSRPSTPGLSVVSGISATSEDIPNKIEDLRSECSSDFGGKDSVTSPDMDEITHGAHQLTSPPSQSESLLAMFDPLSSHEGASAVVRPKVHYARPSHPPPDPPILEGAVGGNEARLPNFGSHVLTPAEMEAFKQRHSYPERLVRSRSSDIVSSVRRPMSDPSWNRRPGNEERELPPAAAIGATSLVAAPHSSSSSPSKDSSRGETEERKDSDDEKSDRNRPWWRKRFVSAMPKAPIPFRKKEKQEKDKDDLGPDRFSTLTDDPSPRLSAQAQVAEDILDKYRNAIKRTSPSDGAMANYESTGDNHDRDLSSKLLYHSDKEVMGDGESAHDSPRDEALQNISADDLPDSASQAAHPQDSAFSYRDAKKKLRLALCSADSVAFPVLTHSTRNGLPDHTDPEDNEIVCFLKVQIAEAINLQDKNLMAQLQETMRCVCRFDNRTCRKLLASIAEDYRKRAPYIAYLTRCRQGLQTTQAHLERLLQRVLRDKEVANRYFTTVCVRLLLESKEKKIREFIQDFQKLTAADDKTAQVEDFLQFLYGAMAQDVIWQNASEEQLQDAQLAIERSVMNRIFKLAFYPNQDGDILRDQVLHEHIQRLSKVVTANHRALQIPEVYLREAPWPSAQSEIRTISAYKTPRDKVQCILRMCSTIMNLLSLANEDSVPGADDFVPVLVFVLIKANPPCLLSTVQYISSFYASCLSGEESYWWMQFTAAVEFIKTIDDRK
binds	G protein-regulated inducer of neurite outgrowth 1 (protein, UniProt Q7Z2K8-1 1-1008) MDTAEDPAWLQLLQKDSSPPGPRPTAFFCPQDGSLGAGSSAMRDYCPSQQKASPAPPRHTPDQSPGMESRHRSPSGAGEGASCSDGPRGSLACPSPTCFSPQESPSKETLEAHGASISGTPEATTSGKPEPVSSVKTEPKSSDDRNPMFLEKMDFKSSKQADSTSIGKEDPGSSRKADPMFTGKAEPEILGKGDPVAPGRMDPMTVRKEDLGSLGKVDPLCSSKTYTVSPRKEDPGSLRKVDPVSSDKVDPVFPRKEEPRYSGKEHPVSSEKVAPTSAEKVDLVLSGKRDPGPSGKADPMPLESMDSASTGKTEPGLLGKLIPGSSGKNGPVSSGTGAPGSLGRLDPTCLGMADPASVGNVETVPATKEDSRFLGKMDPASSGEGRPVSGHTDTTASAKTDLTSLKNVDPMSSGKVDPVSLGKMDPMCSGKPELLSPGQAERVSVGKAGTVSPGKEDPVSSRREDPISAGSRKTSSEKVNPESSGKTNPVSSGPGDPRSLGTAGPPSAVKAEPATGGKGDPLSSEKAGLVASGKAAPTASGKAEPLAVGKEDPVSKGKADAGPSGQGDSVSIGKVVSTPGKTVPVPSGKVDPVSLGKAEAIPEGKVGSLPLEKGSPVTTTKADPRASGKAQPQSGGKAETKLPGQEGAAAPGEAGAVCLKKETPQASEKVDPGSCRKAEPLASGKGEPVSLGKADSAPSRKTESPSLGKVVPLSLEKTKPSSSSRQLDRKALGSARSPEGARGSEGRVEPKAEPVSSTEASSLGQKDLEAAGAERSPCPEAAAPPPGPRTRDNFTKAPSWEASAPPPPREDAGTQAGAQACVSVAVSPMSPQDGAGGSAFSFQAAPRAPSPPSRRDAGLQVSLGAAETRSVATGPMTPQAAAPPAFPEVRVRPGSALAAAVAPPEPAEPVRDVSWDEKGMTWEVYGAAMEVEVLGMAIQKHLERQIEEHGRQGAPAPPPAARAGPGRSGSVRTAPPDGAAKRPPGLFRALLQSVRRPRCCSRAGPTAE
binds	GRB2-associated-binding protein 1 (protein, UniProt Q13480-2 1-724) MSGGEVVCSGWLRKSPPEKKLKRYAWKRRWFVLRSGRLTGDPDVLEYYKNDHAKKPIRIIDLNLCQQVDAGLTFNKKEFENSYIFDINTIDRIFYLVADSEEEMNKWVRCICDICGFNPTEEDPVKPPGSSLQAPADLPLAINTAPPSTQADSSSATLPPPYQLINVPPHLETLGIQEDPQDYLLLINCQSKKPEPTRTHADSAKSTSSETDCNDNVPSHKNPASSQSKHGMNGFFQQQMIYDSPPSRAPSASVDSSLYNLPRSYSHDVLPKVSPSSTEADGELYVFNTPSGTSSVETQMRHVSISYDIPPTPGNTYQIPRTFPEGTLGQTSKLDTIPDIPPPRPPKPHPAHDRSPVETCSIPRTASDTDSSYCIPTAGMSPSRSNTISTVDLNKLRKDASSQDCYDIPRAFPSDRSSSLEGFHNHFKVKNVLTVGSVSSEELDENYVPMNPNSPPRQHSSSFTEPIQEANYVPMTPGTFDFSSFGMQVPPPAHMGFRSSPKTPPRRPVPVADCEPPPVDRNLKPDRKGQSPKILRLKPHGLERTDSQTIGDFATRRKVKPAPLEIKPLPEWEELQAPVRSPITRSFARDSSRFPMSPRPDSVHSTTSSSDSHDSEENYVPMNPNLSSEDPNLFGSNSLDGGSSPMIKPKGDKQVEYLDLDLDSGKSTPPRKQKSSGSGSSVADERVDYVVVDQQKTLALKSTREAWTDGRQSTESETPAKSVK
